Reference: the supplement of paper PMC10849652
Some of the results follow.

By UniProt entry, the sequences of proteins in these tests, tags left out. Where a name states a change or a piece, a line headed by the entry shows the natural chain unless it says otherwise.
UniProt O95202: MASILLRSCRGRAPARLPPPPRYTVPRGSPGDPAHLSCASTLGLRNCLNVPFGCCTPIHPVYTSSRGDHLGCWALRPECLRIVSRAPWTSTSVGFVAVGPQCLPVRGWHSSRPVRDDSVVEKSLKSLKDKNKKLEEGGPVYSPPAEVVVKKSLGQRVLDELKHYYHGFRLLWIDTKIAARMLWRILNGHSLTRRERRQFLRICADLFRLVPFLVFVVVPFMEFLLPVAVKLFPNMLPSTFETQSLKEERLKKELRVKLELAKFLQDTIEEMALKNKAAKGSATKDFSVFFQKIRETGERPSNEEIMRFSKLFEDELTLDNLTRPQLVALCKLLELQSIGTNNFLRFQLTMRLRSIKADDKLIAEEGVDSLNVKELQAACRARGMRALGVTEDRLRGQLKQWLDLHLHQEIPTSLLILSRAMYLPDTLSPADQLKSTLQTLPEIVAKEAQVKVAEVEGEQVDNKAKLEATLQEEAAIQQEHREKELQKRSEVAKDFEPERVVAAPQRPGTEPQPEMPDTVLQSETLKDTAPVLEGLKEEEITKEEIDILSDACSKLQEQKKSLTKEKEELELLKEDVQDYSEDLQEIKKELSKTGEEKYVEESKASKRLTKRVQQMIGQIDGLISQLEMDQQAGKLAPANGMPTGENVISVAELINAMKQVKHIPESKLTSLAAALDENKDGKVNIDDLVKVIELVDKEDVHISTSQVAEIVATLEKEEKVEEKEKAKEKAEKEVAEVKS
UniProt Q8TCA0: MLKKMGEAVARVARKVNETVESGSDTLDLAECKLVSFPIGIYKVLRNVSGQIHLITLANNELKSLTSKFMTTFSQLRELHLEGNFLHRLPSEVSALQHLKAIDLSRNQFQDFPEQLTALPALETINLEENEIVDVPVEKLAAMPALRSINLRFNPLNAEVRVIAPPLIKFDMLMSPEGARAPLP
UniProt Q53H82: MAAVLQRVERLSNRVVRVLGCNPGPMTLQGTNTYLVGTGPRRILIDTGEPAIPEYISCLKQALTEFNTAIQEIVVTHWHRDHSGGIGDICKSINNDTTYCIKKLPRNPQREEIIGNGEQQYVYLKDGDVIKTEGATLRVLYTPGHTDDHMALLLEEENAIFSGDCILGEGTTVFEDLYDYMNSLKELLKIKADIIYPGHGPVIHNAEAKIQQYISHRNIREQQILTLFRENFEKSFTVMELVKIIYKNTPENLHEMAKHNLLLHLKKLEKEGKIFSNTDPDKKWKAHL
UniProt Q14657: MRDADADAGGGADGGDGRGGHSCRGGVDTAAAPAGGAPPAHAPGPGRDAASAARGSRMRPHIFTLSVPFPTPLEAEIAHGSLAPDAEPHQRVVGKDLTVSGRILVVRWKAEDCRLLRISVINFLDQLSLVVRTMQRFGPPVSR
UniProt Q9UHA4, whole entry, looked up: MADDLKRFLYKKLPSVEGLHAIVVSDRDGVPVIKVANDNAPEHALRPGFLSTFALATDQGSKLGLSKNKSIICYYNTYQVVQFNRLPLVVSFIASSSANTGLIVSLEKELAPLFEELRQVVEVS
UniProt P02545: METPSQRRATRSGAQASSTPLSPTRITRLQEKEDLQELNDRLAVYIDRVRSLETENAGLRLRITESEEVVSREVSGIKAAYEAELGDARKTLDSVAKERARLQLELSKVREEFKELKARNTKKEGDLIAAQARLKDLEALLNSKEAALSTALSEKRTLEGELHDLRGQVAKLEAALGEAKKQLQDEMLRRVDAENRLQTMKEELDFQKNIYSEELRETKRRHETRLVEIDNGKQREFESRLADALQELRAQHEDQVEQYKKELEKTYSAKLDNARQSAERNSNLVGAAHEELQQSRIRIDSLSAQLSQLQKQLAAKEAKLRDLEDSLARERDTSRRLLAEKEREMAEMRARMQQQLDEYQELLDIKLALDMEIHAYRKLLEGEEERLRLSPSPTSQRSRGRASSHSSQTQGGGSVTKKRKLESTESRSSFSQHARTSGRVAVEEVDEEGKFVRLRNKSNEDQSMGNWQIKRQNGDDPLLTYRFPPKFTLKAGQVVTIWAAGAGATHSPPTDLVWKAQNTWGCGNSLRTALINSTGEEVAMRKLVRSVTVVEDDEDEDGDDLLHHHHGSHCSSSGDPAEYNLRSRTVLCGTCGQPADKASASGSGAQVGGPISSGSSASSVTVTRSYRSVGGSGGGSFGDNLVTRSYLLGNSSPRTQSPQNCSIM
UniProt Q9P2J5: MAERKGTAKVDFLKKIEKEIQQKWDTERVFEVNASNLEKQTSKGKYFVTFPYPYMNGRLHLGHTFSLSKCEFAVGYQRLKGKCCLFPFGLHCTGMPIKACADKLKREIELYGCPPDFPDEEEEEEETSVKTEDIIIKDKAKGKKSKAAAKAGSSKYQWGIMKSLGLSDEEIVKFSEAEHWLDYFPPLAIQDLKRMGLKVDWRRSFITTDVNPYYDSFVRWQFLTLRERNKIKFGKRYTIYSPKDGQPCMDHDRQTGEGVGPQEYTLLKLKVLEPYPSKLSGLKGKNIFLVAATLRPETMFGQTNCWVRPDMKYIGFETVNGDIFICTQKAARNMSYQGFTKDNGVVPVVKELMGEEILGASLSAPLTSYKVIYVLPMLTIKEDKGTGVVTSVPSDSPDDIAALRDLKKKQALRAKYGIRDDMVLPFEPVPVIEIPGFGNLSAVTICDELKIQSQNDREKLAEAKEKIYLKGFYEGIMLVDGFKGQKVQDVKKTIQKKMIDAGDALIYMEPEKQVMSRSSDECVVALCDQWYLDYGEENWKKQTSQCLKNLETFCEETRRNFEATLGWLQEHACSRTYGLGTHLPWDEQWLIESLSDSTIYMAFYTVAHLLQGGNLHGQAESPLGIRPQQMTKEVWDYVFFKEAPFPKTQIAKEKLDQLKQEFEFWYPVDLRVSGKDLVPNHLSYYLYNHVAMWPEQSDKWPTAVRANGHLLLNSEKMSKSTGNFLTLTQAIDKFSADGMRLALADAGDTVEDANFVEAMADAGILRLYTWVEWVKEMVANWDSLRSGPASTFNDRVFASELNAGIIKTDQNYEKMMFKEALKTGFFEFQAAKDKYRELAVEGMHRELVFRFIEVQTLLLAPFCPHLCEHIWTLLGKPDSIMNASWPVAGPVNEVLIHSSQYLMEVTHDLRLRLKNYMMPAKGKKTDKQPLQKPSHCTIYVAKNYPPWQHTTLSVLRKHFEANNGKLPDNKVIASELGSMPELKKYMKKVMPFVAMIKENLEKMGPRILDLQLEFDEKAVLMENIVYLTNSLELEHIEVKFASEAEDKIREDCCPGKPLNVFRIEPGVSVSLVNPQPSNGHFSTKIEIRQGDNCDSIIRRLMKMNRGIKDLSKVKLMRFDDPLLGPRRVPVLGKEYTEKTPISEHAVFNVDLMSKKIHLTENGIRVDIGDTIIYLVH
UniProt P18858, whole entry, looked up: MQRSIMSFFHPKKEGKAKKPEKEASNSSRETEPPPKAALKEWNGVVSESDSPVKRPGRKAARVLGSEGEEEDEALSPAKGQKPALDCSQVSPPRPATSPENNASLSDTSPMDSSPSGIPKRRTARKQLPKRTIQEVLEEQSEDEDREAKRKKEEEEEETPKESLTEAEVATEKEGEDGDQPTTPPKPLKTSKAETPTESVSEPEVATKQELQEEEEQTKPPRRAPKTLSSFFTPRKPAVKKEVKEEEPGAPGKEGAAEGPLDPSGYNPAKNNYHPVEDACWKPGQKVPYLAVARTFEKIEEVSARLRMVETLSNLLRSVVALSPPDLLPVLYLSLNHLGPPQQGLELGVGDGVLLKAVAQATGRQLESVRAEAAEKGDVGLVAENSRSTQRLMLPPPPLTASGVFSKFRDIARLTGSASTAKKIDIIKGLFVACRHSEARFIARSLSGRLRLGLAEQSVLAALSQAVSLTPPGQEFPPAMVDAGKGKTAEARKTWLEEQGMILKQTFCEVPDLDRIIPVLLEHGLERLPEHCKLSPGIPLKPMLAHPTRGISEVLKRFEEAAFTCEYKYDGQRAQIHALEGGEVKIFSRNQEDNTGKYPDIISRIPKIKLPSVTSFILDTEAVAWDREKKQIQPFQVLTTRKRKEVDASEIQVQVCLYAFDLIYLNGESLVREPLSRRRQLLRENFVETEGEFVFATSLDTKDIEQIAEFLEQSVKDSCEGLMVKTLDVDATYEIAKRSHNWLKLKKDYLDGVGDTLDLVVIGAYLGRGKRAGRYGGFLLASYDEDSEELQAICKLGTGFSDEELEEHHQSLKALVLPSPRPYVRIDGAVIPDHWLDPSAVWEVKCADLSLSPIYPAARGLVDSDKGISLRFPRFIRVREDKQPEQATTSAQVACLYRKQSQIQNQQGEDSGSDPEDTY
UniProt Q86U70: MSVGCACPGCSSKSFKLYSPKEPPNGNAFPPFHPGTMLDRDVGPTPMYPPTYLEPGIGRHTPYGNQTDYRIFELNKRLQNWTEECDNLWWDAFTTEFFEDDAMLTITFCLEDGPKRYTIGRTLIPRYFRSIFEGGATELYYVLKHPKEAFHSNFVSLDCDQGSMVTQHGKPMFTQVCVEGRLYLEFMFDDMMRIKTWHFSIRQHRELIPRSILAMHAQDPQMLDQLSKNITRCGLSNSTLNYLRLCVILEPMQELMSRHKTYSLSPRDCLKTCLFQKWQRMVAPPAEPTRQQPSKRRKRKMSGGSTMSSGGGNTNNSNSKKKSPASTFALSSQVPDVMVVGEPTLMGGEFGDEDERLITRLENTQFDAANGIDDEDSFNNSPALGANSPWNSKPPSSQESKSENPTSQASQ
UniProt Q16773: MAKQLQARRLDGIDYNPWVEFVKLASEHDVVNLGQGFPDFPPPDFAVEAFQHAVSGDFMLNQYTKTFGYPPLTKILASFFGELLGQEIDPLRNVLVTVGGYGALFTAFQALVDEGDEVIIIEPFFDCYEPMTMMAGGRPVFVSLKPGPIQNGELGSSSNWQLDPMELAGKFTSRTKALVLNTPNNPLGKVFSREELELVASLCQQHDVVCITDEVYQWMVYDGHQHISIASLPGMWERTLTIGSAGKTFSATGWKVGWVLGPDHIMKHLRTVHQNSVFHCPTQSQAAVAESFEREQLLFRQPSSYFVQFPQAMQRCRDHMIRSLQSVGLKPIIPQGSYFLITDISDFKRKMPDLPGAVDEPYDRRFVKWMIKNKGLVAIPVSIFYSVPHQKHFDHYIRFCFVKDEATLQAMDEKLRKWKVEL
UniProt O14910: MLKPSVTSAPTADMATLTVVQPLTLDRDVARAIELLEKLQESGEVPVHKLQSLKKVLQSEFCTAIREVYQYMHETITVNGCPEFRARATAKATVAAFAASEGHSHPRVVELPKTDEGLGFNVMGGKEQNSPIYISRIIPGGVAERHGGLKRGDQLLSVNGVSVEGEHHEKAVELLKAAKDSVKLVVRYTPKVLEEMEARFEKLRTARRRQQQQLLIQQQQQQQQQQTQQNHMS
UniProt Q9Y2Q5, whole entry, looked up: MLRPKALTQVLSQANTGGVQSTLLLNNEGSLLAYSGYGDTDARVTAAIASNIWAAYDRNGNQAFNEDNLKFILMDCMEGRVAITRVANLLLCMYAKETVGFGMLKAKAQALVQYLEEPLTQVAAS
UniProt Q9H008: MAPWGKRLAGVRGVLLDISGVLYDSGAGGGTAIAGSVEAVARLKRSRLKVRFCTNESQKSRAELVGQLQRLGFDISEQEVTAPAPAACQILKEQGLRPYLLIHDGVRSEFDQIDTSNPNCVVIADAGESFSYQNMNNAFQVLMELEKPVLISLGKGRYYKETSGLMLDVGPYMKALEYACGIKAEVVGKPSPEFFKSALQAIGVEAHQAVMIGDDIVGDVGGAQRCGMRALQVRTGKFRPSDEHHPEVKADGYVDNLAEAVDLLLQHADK
UniProt Q6UWP7: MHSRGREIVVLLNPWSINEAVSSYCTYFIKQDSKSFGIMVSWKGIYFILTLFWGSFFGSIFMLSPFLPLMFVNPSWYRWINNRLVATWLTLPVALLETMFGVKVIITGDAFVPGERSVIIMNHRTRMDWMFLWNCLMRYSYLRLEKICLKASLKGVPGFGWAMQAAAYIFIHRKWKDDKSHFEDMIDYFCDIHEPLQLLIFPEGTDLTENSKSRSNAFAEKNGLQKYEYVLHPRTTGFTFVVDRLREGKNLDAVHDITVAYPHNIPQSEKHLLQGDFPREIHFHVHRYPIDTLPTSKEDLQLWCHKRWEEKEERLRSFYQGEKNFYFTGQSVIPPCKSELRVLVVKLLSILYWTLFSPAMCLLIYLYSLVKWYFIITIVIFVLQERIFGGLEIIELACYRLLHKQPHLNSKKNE
UniProt Q6YP21: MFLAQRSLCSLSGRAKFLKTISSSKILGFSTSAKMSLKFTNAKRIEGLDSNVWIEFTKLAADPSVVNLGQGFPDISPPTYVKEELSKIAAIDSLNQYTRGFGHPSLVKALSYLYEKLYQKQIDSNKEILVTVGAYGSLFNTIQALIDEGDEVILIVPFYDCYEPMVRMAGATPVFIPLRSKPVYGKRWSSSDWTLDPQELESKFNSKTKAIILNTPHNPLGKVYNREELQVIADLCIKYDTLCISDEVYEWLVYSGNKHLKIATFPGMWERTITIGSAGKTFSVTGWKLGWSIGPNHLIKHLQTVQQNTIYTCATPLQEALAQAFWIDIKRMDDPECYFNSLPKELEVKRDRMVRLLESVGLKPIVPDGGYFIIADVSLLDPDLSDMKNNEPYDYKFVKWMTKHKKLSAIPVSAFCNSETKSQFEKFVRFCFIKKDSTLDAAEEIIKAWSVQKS

Experiments:
Experiment in all cases: log2 fold change, soluble protein after heating vs DMSO (PISA); higher = thermal stabilisation; K562 cells, 10 uM, 30 min; active = over 0.2 and 3.5 SD of the protein, either way, in both replicates (recomputed)
saracatinib = compound: CN1CCN(CCOc2cc(OC3CCOCC3)c3c(Nc4c(Cl)ccc5c4OCO5)ncnc3c2)CC1 [saracatinib]
Method in brief: (§1)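 K562 cells at 2×10^6 cells/mL were given 10 μM compound for 30 min. Aliquots then went through 3 min of heating across 48°C-58°C, were pooled, and were extracted in PBS with 0.5% NP-40 at 4°C, and the supernatant after 21,000xg for 90 min was quantified by TMTpro 16plex LC-MS/MS with channel sums equalised. Thermal stability relative to control samples, from duplicates, is given as log2 fold change.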

sotrastaurin = compound: CN1CCN(c2nc(C3=C(c4c[nH]c5ccccc45)C(=O)NC3=O)c3ccccc3n2)CC1 [sotrastaurin]
Method in brief: as §1

alvocidib = compound: CN1CC[C@H](c2c(O)cc(O)c3c(=O)cc(-c4ccccc4Cl)oc23)[C@H](O)C1 [alvocidib]
Method in brief: as §1

Tubastatin A = compound: CN1CCc2c(c3ccccc3n2Cc2ccc(C(=O)NO)cc2)C1 [Tubastatin A]
Method in brief: as §1

[1] = compound: CNC(=O)C1=CC=CC=C1NC2=NC(=NC=C2Cl)NC3=C(C=C(C=C3)N4CCOCC4)OC
Method in brief: as §1

defactinib = compound: CNC(=O)c1ccc(Nc2ncc(C(F)(F)F)c(NCc3nccnc3N(C)S(C)(=O)=O)n2)cc1 [defactinib]
Method in brief: as §1

rucaparib = compound: CNCc1ccc(-c2[nH]c3cc(F)cc4c3c2CCNC4=O)cc1 [rucaparib]
Method in brief: as §1

[2] = compound: CNc1nc(-c2ccc3c(N)n[nH]c3c2)cc(N2C[C@@H](C(=O)NC3CCCCC3)CC[C@H]2C)n1
Method in brief: as §1

encorafenib = compound: COC(=O)N[C@@H](C)CNc1nccc(-c2cn(C(C)C)nc2-c2cc(Cl)cc(NS(C)(=O)=O)c2F)n1 [encorafenib]
Method in brief: as §1

[3] = compound: COC(=O)[C@H](CCSC)NC(=O)C1=C(C=C(C=C1)NC[C@H](CS)N)C2=CC=CC=C2
Method in brief: as §1

Measured: log2 fold change

LPIN2 (UniProt Q92539)
inactive: saracatinib 0.033 | sotrastaurin -0.005 | alvocidib 0.014 | Tubastatin A 0.027 | [1] -0.148 | defactinib 0.015 | rucaparib -0.046 | [2] 0.007 | encorafenib -0.14 | [3] -0.031

LRFN1 (UniProt Q9P244)
active: alvocidib -0.44
inactive: saracatinib 0.053 | sotrastaurin -0.08 | Tubastatin A -0.006 | [1] -0.24 | defactinib -0.048 | rucaparib 0.062 | [2] -0.028 | encorafenib -0.227 | [3] -0.069

LETM1 (UniProt O95202)
inactive: saracatinib 0.005 | sotrastaurin -0.012 | alvocidib -0.029 | Tubastatin A -0.031 | [1] 0.026 | defactinib -0.059 | rucaparib -0.049 | [2] -0.043 | encorafenib 0.011 | [3] 0.018

LCP1 (UniProt P13796)
inactive: saracatinib 0.057 | sotrastaurin 0.039 | alvocidib 0.02 | Tubastatin A -0.016 | [1] -0.012 | defactinib -0.013 | rucaparib -0.052 | [2] -0.021 | encorafenib -0.01 | [3] 0.024

LPCAT1 (UniProt Q8NF37)
inactive: saracatinib 0.023 | sotrastaurin 0.025 | alvocidib -0.06 | Tubastatin A 0.152 | [1] -0.01 | defactinib -0.031 | rucaparib -0.024 | [2] -0.012 | encorafenib 0.044 | [3] 0.031

LRIG2 (UniProt O94898)
inactive: saracatinib -0.02 | sotrastaurin 0.027 | alvocidib -0.027 | Tubastatin A 0.093 | [1] 0.121 | defactinib -0.008 | rucaparib -0.021 | [2] -0.017 | encorafenib 0.051 | [3] -0.043

LRRC20 (UniProt Q8TCA0)
inactive: saracatinib 0.05 | sotrastaurin -0.071 | alvocidib -0.011 | Tubastatin A 0.08 | [1] 0.011 | defactinib -0.052 | rucaparib 0.019 | [2] 0.009 | encorafenib 0.061 | [3] -0.023

LACTB2 (UniProt Q53H82)
inactive: saracatinib 0.084 | sotrastaurin -0.031 | alvocidib -0.022 | Tubastatin A -0.023 | [1] -0.038 | defactinib 0.003 | rucaparib -0.028 | [2] -0.023 | encorafenib 0.004 | [3] 0.027

LLPH (UniProt Q9BRT6)
inactive: saracatinib -0.114 | sotrastaurin -0.025 | alvocidib 0.335 | Tubastatin A 0.265 | [1] -0.034 | defactinib 0.57 | rucaparib 0.412 | [2] 0.069 | encorafenib 0.256 | [3] -0.001

LAGE3 (UniProt Q14657)
inactive: saracatinib 0.053 | sotrastaurin -0.015 | alvocidib 0.011 | Tubastatin A -0.005 | [1] -0.024 | defactinib -0.035 | rucaparib -0.049 | [2] -0.003 | encorafenib -0.045 | [3] 0.039

LAMTOR3 (UniProt Q9UHA4)
inactive: saracatinib -0.1 | sotrastaurin -0.079 | alvocidib 0.009 | Tubastatin A 0.027 | [1] -0.127 | defactinib -0.003 | rucaparib 0.061 | [2] -0.035 | encorafenib -0.01 | [3] -0.026

LMNA (UniProt P02545)
inactive: saracatinib 0.041 | sotrastaurin -0.083 | Tubastatin A -0.033 | [1] 0.003 | defactinib -0.121 | rucaparib -0.08 | [2] -0.138 | encorafenib -0.019 | [3] 0.042
active: alvocidib -0.214

LARS (UniProt Q9P2J5)
inactive: saracatinib -0.053 | sotrastaurin -0.1 | alvocidib 0.146 | Tubastatin A 0.011 | [1] 0.045 | defactinib 0.163 | rucaparib 0.364 | [2] 0.117 | encorafenib 0.17 | [3] -0.018

LIG1 (UniProt P18858)
inactive: saracatinib -0.05 | sotrastaurin -0.168 | alvocidib -0.173 | Tubastatin A 0.102 | [1] 0.033 | defactinib -0.3 | rucaparib -0.015 | [2] 0.106 | encorafenib 0.037 | [3] -0.07

LRRC40 (UniProt Q9H9A6)
inactive: saracatinib -0.064 | sotrastaurin -0.093 | alvocidib -0.027 | Tubastatin A 0.014 | [1] 0.018 | defactinib -0.116 | rucaparib 0.02 | [2] 0.077 | encorafenib 0.043 | [3] -0.065

LAMP1 (UniProt P11279)
inactive: saracatinib -0.007 | sotrastaurin 0.062 | alvocidib -0.012 | Tubastatin A -0.058 | [1] 0.035 | defactinib -0.019 | rucaparib -0.1 | [2] 0.027 | encorafenib 0.031 | [3] -0.049

LCMT1 (UniProt Q9UIC8)
inactive: saracatinib 0.002 | sotrastaurin 0.056 | alvocidib -0.023 | Tubastatin A -0.037 | [1] 0.01 | defactinib -0.025 | rucaparib -0.055 | [2] -0.013 | encorafenib 0.012 | [3] -0.056

LDB1 (UniProt Q86U70)
inactive: saracatinib 0.063 | sotrastaurin 0.019 | alvocidib 0.001 | Tubastatin A -0.019 | [1] -0.05 | defactinib -0.017 | rucaparib 0.008 | [2] -0.032 | encorafenib -0.016 | [3] 0.003

KYAT1 (UniProt Q16773)
inactive: saracatinib 0.027 | sotrastaurin -0.001 | alvocidib 0.019 | Tubastatin A 0.167 | [1] -0.064 | defactinib -0.027 | rucaparib -0.062 | [2] -0.01 | encorafenib 0.011 | [3] 0.002

Two records picked at random from the list so far:
LETM1 (UniProt O95202)
inactive: saracatinib 0.005 | sotrastaurin -0.012 | alvocidib -0.029 | Tubastatin A -0.031 | [1] 0.026 | defactinib -0.059 | rucaparib -0.049 | [2] -0.043 | encorafenib 0.011 | [3] 0.018

LRFN1 (UniProt Q9P244)
active: alvocidib -0.44
inactive: saracatinib 0.053 | sotrastaurin -0.08 | Tubastatin A -0.006 | [1] -0.24 | defactinib -0.048 | rucaparib 0.062 | [2] -0.028 | encorafenib -0.227 | [3] -0.069

(next part)

LASP1 (UniProt Q14847)
inactive: saracatinib 0.042 | sotrastaurin 0.025 | alvocidib 0.006 | Tubastatin A -0.027 | [1] -0.037 | defactinib -0.012 | rucaparib -0.014 | [2] -0.045 | encorafenib -0.018 | [3] 0.023

LRP8 (UniProt E9PP15)
inactive: saracatinib 0.019 | sotrastaurin 0.214 | alvocidib 0.021 | Tubastatin A -0.057 | [1] -0.145 | defactinib -0.047 | rucaparib 0.063 | [2] -0.025 | encorafenib -0.088 | [3] -0.151

LIN7A (UniProt O14910)
inactive: saracatinib 0.013 | sotrastaurin 0.092 | alvocidib 0.048 | Tubastatin A -0.013 | [1] -0.056 | defactinib -0.021 | rucaparib 0.093 | [2] -0.077 | encorafenib -0.088 | [3] 0.008

LAMTOR2 (UniProt Q9Y2Q5)
inactive: saracatinib -0.053 | sotrastaurin -0.033 | alvocidib 0.082 | Tubastatin A -0.009 | [1] -0.037 | defactinib -0.042 | rucaparib 0.026 | [2] -0.084 | encorafenib -0.039 | [3] 0.139

LHPP (UniProt Q9H008)
inactive: saracatinib -0.019 | sotrastaurin 0.02 | alvocidib -0.012 | Tubastatin A 0.022 | [1] 0.012 | defactinib -0.004 | rucaparib -0.067 | [2] -0.009 | encorafenib -0.023 | [3] 0.045

LRRC59 (UniProt Q96AG4)
inactive: saracatinib -0.054 | sotrastaurin 0.042 | alvocidib 0.007 | Tubastatin A -0.015 | [1] 0 | defactinib 0.001 | rucaparib -0.01 | [2] -0.005 | encorafenib -0.029 | [3] -0.001

L3HYPDH (UniProt Q96EM0)
inactive: saracatinib -0.039 | sotrastaurin 0.036 | alvocidib -0.016 | Tubastatin A -0.023 | [1] -0.038 | defactinib 0.007 | rucaparib -0.059 | [2] -0.022 | encorafenib 0.047 | [3] 0.002

LMAN2 (UniProt Q12907)
inactive: saracatinib -0.004 | sotrastaurin 0.008 | alvocidib -0.023 | Tubastatin A 0.02 | [1] 0.082 | defactinib 0.003 | rucaparib 0.037 | [2] -0.034 | encorafenib 0.001 | [3] -0.011

LCLAT1 (UniProt Q6UWP7)
inactive: saracatinib 0.018 | sotrastaurin 0.016 | alvocidib -0.046 | Tubastatin A -0.002 | [1] -0.048 | defactinib -0.03 | rucaparib -0.074 | [2] -0.068 | encorafenib 0.003 | [3] 0.001

KYAT3 (UniProt Q6YP21)
inactive: saracatinib 0.026 | sotrastaurin 0.053 | alvocidib 0.019 | Tubastatin A -0.041 | [1] -0.025 | defactinib -0.012 | rucaparib -0.049 | [2] -0.031 | encorafenib 0.012 | [3] 0.036
